According to the supplement of paper PMC12823440, “Inhibitors supercharge kinase turnover through native proteolytic circuits” (Nature, 2025):
This is one part of the list. The calls rarely recur for the same compound in another form.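 In K562 cells expressing nanoluciferase-fused kinases, luminescence was recorded at 4 h intervals between 2 and 18 h, normalized as percent of control with DMSO at 100% and a positive control at 0%. A significant (2 sigma) signal drop marks a time point as decreased. The authors' rule for a hit is not shown and takes in more than the number of time points.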

Sequences of proteins named here, by UniProt entry; tags and fusion partners are left off. A change or cut given only in a name is not applied to a line headed by its entry.
UniProt P48729: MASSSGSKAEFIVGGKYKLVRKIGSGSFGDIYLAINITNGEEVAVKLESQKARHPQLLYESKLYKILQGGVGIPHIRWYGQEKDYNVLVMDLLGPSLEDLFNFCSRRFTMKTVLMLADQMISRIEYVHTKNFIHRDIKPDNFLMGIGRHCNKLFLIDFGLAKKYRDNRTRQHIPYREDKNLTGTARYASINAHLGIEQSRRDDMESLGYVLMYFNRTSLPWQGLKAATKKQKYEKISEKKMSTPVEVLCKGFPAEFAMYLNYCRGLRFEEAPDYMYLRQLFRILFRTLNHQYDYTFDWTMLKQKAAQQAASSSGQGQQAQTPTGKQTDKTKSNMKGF
UniProt P48730: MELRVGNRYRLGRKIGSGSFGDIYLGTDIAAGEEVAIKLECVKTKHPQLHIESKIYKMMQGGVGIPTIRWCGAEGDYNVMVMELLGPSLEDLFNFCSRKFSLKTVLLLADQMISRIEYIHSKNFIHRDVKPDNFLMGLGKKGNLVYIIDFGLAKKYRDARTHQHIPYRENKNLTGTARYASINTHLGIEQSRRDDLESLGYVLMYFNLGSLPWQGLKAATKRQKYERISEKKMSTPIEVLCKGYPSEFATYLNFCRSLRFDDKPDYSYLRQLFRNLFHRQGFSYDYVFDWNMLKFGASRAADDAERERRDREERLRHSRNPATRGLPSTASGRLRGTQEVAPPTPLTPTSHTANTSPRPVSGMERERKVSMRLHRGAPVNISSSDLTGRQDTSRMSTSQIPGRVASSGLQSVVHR
UniProt Q08345: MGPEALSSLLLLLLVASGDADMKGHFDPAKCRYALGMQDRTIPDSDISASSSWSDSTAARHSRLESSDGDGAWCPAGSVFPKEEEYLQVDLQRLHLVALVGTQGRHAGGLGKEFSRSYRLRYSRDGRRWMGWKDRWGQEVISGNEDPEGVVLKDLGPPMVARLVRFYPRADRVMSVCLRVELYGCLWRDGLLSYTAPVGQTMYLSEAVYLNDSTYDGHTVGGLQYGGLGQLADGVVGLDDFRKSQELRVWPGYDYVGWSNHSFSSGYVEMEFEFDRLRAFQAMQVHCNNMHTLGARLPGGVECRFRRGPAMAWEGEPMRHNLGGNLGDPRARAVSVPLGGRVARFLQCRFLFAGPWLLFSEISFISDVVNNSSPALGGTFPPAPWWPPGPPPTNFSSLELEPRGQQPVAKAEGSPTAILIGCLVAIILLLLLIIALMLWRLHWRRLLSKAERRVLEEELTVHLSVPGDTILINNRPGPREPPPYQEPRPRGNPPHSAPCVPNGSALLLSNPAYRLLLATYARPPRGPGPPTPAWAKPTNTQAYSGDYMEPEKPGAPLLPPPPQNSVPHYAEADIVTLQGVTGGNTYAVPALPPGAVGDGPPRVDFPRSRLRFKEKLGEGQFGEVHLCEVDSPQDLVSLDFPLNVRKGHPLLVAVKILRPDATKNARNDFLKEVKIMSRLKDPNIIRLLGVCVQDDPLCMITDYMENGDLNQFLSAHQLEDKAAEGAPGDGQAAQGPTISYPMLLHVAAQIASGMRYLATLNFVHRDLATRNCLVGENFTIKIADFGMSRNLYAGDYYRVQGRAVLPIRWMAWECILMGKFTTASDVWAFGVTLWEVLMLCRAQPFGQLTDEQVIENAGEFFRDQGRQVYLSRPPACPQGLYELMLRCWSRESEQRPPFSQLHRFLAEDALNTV
UniProt Q92630: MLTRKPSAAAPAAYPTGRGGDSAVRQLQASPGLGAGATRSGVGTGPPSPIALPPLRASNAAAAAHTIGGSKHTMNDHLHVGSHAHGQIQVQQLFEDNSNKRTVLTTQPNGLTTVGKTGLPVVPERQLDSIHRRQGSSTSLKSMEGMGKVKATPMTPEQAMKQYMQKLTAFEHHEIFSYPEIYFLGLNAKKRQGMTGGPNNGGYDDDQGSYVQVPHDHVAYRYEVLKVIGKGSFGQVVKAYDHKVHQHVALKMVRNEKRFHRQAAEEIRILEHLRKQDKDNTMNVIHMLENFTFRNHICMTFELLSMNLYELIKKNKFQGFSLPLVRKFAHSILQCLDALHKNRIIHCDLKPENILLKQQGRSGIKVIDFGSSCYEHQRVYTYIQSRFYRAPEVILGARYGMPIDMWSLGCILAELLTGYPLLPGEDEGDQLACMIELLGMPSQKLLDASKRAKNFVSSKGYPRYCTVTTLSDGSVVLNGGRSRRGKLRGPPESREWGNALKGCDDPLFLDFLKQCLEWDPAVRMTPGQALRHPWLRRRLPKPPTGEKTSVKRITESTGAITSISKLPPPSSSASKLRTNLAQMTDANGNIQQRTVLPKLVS
UniProt P21860, whole entry: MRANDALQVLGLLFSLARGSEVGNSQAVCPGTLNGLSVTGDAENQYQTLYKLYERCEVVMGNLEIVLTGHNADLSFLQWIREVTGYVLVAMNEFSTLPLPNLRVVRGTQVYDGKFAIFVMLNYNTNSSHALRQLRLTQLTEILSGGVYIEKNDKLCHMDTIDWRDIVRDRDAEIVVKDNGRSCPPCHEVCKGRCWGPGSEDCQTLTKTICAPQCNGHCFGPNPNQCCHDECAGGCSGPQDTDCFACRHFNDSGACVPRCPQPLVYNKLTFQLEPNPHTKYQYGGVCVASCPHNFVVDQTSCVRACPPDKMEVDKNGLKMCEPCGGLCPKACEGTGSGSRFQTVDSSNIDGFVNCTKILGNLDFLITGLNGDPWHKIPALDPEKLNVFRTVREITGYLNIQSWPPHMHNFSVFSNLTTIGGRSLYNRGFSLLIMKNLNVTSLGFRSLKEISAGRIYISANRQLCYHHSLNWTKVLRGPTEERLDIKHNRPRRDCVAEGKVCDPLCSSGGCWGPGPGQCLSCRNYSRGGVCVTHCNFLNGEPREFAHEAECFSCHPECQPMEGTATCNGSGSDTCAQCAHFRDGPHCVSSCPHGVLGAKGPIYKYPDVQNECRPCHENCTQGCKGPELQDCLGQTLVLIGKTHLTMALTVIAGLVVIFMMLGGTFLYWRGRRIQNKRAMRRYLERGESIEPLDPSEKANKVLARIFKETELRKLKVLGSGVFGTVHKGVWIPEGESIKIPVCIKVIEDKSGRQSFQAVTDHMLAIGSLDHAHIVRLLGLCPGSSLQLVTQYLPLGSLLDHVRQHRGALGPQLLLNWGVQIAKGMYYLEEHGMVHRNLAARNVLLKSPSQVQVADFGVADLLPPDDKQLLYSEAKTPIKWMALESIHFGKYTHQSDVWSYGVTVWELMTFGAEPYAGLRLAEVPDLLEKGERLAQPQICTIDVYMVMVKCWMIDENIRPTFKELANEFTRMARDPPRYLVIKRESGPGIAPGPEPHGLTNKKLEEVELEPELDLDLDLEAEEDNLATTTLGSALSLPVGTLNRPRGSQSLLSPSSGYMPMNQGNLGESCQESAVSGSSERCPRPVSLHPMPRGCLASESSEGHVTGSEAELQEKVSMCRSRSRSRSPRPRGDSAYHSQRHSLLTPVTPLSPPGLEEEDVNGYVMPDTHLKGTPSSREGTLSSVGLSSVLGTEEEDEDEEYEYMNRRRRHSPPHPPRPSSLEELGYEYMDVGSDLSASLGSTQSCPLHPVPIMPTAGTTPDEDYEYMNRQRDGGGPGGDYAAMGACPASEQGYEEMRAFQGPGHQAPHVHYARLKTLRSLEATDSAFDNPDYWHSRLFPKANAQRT
UniProt Q15303, whole entry R711C: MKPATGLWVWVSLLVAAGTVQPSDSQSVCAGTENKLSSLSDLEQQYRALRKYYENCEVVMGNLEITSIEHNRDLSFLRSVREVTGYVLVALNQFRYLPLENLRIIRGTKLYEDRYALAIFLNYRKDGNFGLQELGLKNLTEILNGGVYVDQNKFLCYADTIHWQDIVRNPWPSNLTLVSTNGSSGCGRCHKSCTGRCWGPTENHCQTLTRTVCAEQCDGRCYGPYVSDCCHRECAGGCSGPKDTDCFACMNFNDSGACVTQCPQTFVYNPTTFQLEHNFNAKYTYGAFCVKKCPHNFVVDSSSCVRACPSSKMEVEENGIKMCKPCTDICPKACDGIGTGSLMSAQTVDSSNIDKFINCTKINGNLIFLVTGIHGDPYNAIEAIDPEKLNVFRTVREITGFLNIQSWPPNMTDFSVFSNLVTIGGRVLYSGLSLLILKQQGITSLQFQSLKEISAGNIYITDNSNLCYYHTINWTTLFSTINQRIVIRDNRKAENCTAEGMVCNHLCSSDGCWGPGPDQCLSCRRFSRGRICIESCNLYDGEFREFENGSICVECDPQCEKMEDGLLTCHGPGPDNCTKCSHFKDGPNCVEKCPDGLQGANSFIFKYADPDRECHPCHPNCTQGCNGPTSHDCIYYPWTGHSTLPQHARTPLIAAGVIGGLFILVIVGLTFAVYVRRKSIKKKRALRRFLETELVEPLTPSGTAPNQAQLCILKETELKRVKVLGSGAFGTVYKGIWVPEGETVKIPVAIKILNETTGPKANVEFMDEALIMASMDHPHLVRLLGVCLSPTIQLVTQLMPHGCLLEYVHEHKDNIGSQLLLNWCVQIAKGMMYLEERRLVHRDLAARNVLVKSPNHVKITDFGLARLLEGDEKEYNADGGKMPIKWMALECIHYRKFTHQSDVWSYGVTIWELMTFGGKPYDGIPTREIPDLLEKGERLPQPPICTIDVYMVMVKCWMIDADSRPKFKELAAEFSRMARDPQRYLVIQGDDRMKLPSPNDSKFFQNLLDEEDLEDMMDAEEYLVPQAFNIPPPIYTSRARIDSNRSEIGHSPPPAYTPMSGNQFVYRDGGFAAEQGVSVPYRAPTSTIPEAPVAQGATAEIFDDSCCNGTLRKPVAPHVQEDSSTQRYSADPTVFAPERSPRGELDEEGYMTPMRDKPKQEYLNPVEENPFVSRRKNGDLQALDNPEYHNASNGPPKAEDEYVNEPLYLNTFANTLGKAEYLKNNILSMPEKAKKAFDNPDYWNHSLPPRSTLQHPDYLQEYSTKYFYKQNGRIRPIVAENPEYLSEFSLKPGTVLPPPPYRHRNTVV
UniProt P21802, whole entry, looked up: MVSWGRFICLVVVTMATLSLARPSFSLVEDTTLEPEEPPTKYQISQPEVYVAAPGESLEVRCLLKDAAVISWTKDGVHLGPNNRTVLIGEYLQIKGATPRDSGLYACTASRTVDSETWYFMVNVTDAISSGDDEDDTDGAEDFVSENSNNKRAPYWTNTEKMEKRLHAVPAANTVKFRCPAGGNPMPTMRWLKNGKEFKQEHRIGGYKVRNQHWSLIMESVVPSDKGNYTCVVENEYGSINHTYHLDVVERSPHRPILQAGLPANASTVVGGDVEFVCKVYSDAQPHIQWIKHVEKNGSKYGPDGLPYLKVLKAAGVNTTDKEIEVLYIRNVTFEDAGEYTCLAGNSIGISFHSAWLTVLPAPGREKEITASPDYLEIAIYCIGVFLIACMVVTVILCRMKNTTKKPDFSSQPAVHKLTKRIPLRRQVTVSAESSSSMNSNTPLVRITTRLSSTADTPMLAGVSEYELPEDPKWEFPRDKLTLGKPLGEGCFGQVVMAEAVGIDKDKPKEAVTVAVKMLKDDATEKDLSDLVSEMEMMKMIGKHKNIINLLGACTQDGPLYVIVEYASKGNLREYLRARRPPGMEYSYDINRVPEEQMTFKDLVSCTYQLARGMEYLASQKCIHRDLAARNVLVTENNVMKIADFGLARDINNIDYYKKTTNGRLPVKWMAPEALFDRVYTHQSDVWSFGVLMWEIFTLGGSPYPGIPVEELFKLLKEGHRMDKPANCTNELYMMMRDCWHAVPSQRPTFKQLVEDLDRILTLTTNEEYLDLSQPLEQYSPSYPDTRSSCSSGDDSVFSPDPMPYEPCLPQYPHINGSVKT
UniProt P22607, whole entry, looked up: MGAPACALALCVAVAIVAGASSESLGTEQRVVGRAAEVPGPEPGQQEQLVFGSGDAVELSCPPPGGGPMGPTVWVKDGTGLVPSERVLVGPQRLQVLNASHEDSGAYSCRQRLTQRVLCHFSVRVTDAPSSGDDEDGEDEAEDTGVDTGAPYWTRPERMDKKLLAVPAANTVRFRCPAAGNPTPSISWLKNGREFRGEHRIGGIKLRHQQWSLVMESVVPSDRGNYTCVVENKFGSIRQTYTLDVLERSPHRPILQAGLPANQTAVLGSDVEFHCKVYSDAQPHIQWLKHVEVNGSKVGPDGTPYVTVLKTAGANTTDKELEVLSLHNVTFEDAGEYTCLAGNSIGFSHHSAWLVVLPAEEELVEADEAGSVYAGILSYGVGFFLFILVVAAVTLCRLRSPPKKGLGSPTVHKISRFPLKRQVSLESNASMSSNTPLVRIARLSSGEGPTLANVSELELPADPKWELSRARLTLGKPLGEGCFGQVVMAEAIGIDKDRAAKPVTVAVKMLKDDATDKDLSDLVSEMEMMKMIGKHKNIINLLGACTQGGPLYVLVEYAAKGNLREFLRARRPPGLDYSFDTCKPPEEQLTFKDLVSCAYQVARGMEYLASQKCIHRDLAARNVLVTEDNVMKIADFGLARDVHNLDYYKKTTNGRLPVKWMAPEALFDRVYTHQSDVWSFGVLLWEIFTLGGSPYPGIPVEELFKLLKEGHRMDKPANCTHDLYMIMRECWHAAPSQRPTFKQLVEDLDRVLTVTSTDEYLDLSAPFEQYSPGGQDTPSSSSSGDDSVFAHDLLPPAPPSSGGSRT

Experiments:
Assay in all cases: number of time points (of 5) at which kinase-Nluc abundance scored as decreased, DMSO-normalised (count); higher = more persistent destabilization
Details in all cases: K562; 2-18 h
CSNK1A1 = CSNK1A1 (UniProt P48729)
CSNK1D = CSNK1D (UniProt P48730)
DDR1 = DDR1 (UniProt Q08345)
DYRK1B = DYRK1B (UniProt Q9Y463)
DYRK2 = DYRK2 (UniProt Q92630)
EGFR = EGFR (UniProt P00533)
EGFR_G719S = EGFR_G719S (UniProt P00533)
EGFR_G719S_T790M = EGFR_G719S_T790M (UniProt P00533)
EGFR_L718V = EGFR_L718V (UniProt P00533)
EGFR_L858R = EGFR_L858R (UniProt P00533)
EGFR_L861Q = EGFR_L861Q (UniProt P00533)
EGFR_T790M = EGFR_T790M (UniProt P00533)
EPHA2 = EPHA2 (UniProt P29317)
ERBB3 = ERBB3 (UniProt P21860)
[1] = biological target: ERBB4_R711C (clone: ERBB4_mut) (UniProt Q15303)
ERN1 = ERN1 (UniProt O75460)
FGFR1 = FGFR1 (UniProt P11362)
FGFR2 = FGFR2 (UniProt P21802)
FGFR3 = FGFR3 (UniProt P22607)
FGR = FGR (UniProt P09769)

Measured: number of time points

CN(C)S(=O)(=O)c1ccc2c(c1)/C(=C/c1cc3c([nH]1)CCCC3)C(=O)N2 (2.5 µM)
5: DDR1
0: all other assays above

C[C@H](Nc1ncnc2nc[nH]c12)c1cc2cccc(Cl)c2c(=O)n1-c1ccccc1 [Duvelisib] (10 µM)
0: all assays above

Nc1c(C(=O)NCc2ccc(C(=O)NCCCC3CCCCC3)cc2)cnn1-c1ccccc1 (2.5 µM)
0: all assays above

CC(=O)N1CCC(c2cc(-c3ccc(NC(=O)c4cccn(-c5ccc(F)cc5)c4=O)cc3F)c3c(N)ncnn23)CC1 (0.5 µM)
2: DYRK2
0: all other assays above

O=C(O)c1cc(=O)c2c(OCC(O)COc3cccc4oc(C(=O)O)cc(=O)c34)cccc2o1 [Cromolyn (sodium)] (10 µM)
0: all assays above

C=CC(=O)Nc1cc(-n2c(=O)ccc3cnc4ccc(-c5ccc(NS(C)(=O)=O)cc5)cc4c32)ccc1C (10 µM)
3: EPHA2
0: all other assays above

CC1(C)Cc2c(sc(NC(=S)NC(=O)c3ccccc3)c2C(=O)O)CO1 (10 µM)
0: all assays above

Cc1c(-c2ccc(C(N)=O)c3[nH]c4cc(C(C)(C)O)ccc4c23)cccc1-n1cnc2ccccc2c1=O (2.5 µM)
0: all assays above

Cc1ccc(NC(=O)c2ccc(CN(CCN(C)C)C(=O)c3cccnc3)cc2)cc1Nc1nccc(-c2cccnc2)n1 [PDGFRα kinase inhibitor 1] (10 µM)
0: all assays above

C=CC(=O)Nc1cccc(CNc2nc(Nc3ccc(N4CCN(C)CC4)cc3OC)ncc2Cl)c1 (10 µM)
0: all assays above

Cc1cc(Nc2nc(CC3(C(=O)O)CCN(C(=O)c4cccc(Cl)c4Cl)CC3)ccc2F)n[nH]1 (10 µM)
2: CSNK1D | DYRK2 | EGFR_L861Q
3: [1]
1: DDR1 | EGFR_G719S | EGFR_G719S_T790M | EGFR_L858R | FGFR2
0: all other assays above

CC(=O)c1c(C)c2cnc(Nc3ccc(N4CCN(C(=O)CNc5cccc6c5C(=O)N(C5CCC(=O)NC5=O)C6=O)CC4)cn3)nc2n(C2CCCC2)c1=O (stereo not given) (10 µM)
0: all assays above
